Test results taken from the supplement of paper PMC12593923.

Legend:
Assay in all cases: drug sensitivity score (DSS2, cytotoxicity, CellTox Green); higher = more cytotoxic / more sensitive; extreme values may be limits of the assay
Conditions in all cases: 72 h; doses 0.5, 1, 5 µM
[1] = test system: Kuramochi
[2] = test system: OVCAR3
[3] = test system: OVCAR4

| Compound | drug sensitivity score [1] | drug sensitivity score [2] | drug sensitivity score [3] |
| --- | --- | --- | --- |
| COc1cc2ncnc(Nc3ccc(F)c(Cl)c3)c2cc1NC(=O)/C=C/CN1CCCCC1 [Dacomitinib] | 0 DSS | 0.1 DSS | 0 DSS |
| N#CC[C@H](C1CCCC1)n1cc(-c2ncnc3[nH]ccc23)cn1 [Ruxolitinib (S enantiomer)] | 0 DSS | 0 DSS | 0 DSS |
| COC(=O)CCC(=O)CN [Methyl aminolevulinate (hydrochloride)] | 0 DSS | 0 DSS | 0 DSS |
| O=C(O)Cc1ccccc1Nc1c(Cl)cccc1Cl [Diclofenac (Sodium)] | 0 DSS | 0 DSS | 0 DSS |
| CC(C)Cn1cnc2c(N)nc3ccccc3c21 [Imiquimod (hydrochloride)] | 0 DSS | 0 DSS | 0 DSS |
| CC1=C(CC(=O)O)c2cc(F)ccc2/C1=C\c1ccc([S+](C)[O-])cc1 (centres undefined) [Sulindac] | 0 DSS | 0 DSS | 0 DSS |
| C[C@@H]1CC(=O)NN=C1c1ccc(NN=C(C#N)C#N)cc1 [Levosimendan] | 0 DSS | 0 DSS | 0 DSS |
| Cc1c(C)c2c(c(C)c1O)CCC(C)(COc1ccc(CC3SC(=O)NC3=O)cc1)O2 (centres undefined) [Troglitazone] | 0 DSS | 0 DSS | 0 DSS |
| CO[C@H]1C[C@@H]2CC[C@@H](C)[C@@](O)(O2)C(=O)C(=O)N2CCCC[C@H]2C(=O)O[C@H]([C@H](C)C[C@@H]2CC[C@@H](OCCO)[C@H](OC)C2)CC(=O)[C@H](C)/C=C(\C)[C@@H](O)[C@@H](OC)C(=O)[C@H](C)C[C@H](C)/C=C/C=C/C=C/1C [Everolimus] | 0 DSS | 0 DSS | 0 DSS |
| CCCc1nc2c(C)cc(-c3nc4ccccc4n3C)cc2n1Cc1ccc(-c2ccccc2C(=O)O)cc1 [Telmisartan] | 0 DSS | 0 DSS | 0 DSS |
| CC[C@@]1(O)C(=O)OCc2c1cc1n(c2=O)Cc2cc3ccccc3nc2-1 [Camptothecin] | 0 DSS | 0 DSS | 0 DSS |
| CC(C)C[C@H](NC(=O)[C@@H](COC(C)(C)C)NC(=O)[C@H](Cc1ccc(O)cc1)NC(=O)[C@H](CO)NC(=O)[C@H](Cc1c[nH]c2ccccc12)NC(=O)[C@H](Cc1cnc[nH]1)NC(=O)[C@@H]1CCC(=O)N1)C(=O)N[C@@H](CCCNC(=N)N)C(=O)N1CCC[C@H]1C(=O)NNC(N)=O [Goserelin (acetate)] | 0 DSS | 0 DSS | 0 DSS |
| Nc1nc(F)nc2c1ncn2[C@@H]1O[C@H](CO)[C@@H](O)[C@@H]1O [Fludarabine] | 0 DSS | 0 DSS | 0.1 DSS |
| NCCCNCCSP(=O)(O)O [Amifostine] | 0 DSS | 0 DSS | 0 DSS |
| CN(C)c1cc(NC(=O)CNC(C)(C)C)c(O)c2c1C[C@H]1C[C@H]3[C@H](N(C)C)C(=O)C(C(N)=O)=C(O)[C@@]3(O)C(=O)C1=C2O [Tigecycline] | 0 DSS | 0 DSS | 0 DSS |
| CCN(C(=O)c1c(O)c2c(Cl)cccc2n(C)c1=O)c1ccccc1 [Laquinimod] | 0 DSS | 0 DSS | 0 DSS |
| O=C1CCC(N2Cc3c(C#CCCCNC(=O)c4ccc(NC(=O)[C@@H]5NC6(CCCCC6)[C@@]6(C(=O)Nc7cc(Cl)ccc76)[C@H]5c5cccc(Cl)c5F)cc4)cccc3C2=O)C(=O)N1 (some centres undefined) [MD-224] | 0 DSS | 0 DSS | 0 DSS |
| O=C1CCC(N2Cc3c(CCCCCNC(=O)c4ccc(NC(=O)[C@@H]5NC6(CCCCC6)[C@@]6(C(=O)Nc7cc(Cl)ccc76)[C@H]5c5cccc(Cl)c5F)cc4)cccc3C2=O)C(=O)N1 (some centres undefined) [MD-222] | 0 DSS | 0 DSS | 0 DSS |
| O=C(Nc1nc2cccc(-c3ccc(CN4CCS(=O)(=O)CC4)cc3)n2n1)C1CC1 [Filgotinib] | 0 DSS | 0 DSS | 0 DSS |
| COc1ccccc1OCC(O)CN1CCN(CC(=O)Nc2c(C)cccc2C)CC1 (centres undefined) [Ranolazine (dihydrochloride)] | 0 DSS | 0 DSS | 0 DSS |
| CCOC(=O)/C=C(C)/C=C/C=C(C)/C=C/c1c(C)cc(OC)c(C)c1C [Etretinate] | 0 DSS | 0 DSS | 0 DSS |
| C=C1CC[C@@H]2[C@](C)(CO)[C@H](O)CC[C@@]2(C)[C@@H]1C/C=C1/C(=O)OC[C@H]1O [Andrographolide] | 0 DSS | 0 DSS | 0 DSS |

Part of the list above, with tabs:
Compound	drug sensitivity score [1]	drug sensitivity score [2]	drug sensitivity score [3]
O=C(O)Cc1ccccc1Nc1c(Cl)cccc1Cl [Diclofenac (Sodium)]	0 DSS	0 DSS	0 DSS
CC(C)C[C@H](NC(=O)[C@@H](COC(C)(C)C)NC(=O)[C@H](Cc1ccc(O)cc1)NC(=O)[C@H](CO)NC(=O)[C@H](Cc1c[nH]c2ccccc12)NC(=O)[C@H](Cc1cnc[nH]1)NC(=O)[C@@H]1CCC(=O)N1)C(=O)N[C@@H](CCCNC(=N)N)C(=O)N1CCC[C@H]1C(=O)NNC(N)=O [Goserelin (acetate)]	0 DSS	0 DSS	0 DSS
CCOC(=O)/C=C(C)/C=C/C=C(C)/C=C/c1c(C)cc(OC)c(C)c1C [Etretinate]	0 DSS	0 DSS	0 DSS

The results go on:

| Compound | drug sensitivity score [1] | drug sensitivity score [2] | drug sensitivity score [3] |
| --- | --- | --- | --- |
| O=C(c1ccc(OCCN2CCCCC2)cc1)c1c(-c2ccc(O)cc2)sc2cc(O)ccc12 [Raloxifene (hydrochloride)] | 0 DSS | 0 DSS | 0 DSS |
| CCOC(=O)CCC(=O)O[C@H]1[C@H](O[C@@H]2[C@@H](C)[C@H](O[C@H]3C[C@@](C)(OC)[C@@H](O)[C@H](C)O3)[C@@H](C)C(=O)O[C@H](CC)[C@@](C)(O)[C@H](O)[C@@H](C)C(=O)[C@H](C)C[C@@]2(C)O)O[C@H](C)C[C@@H]1N(C)C [Erythromycin Ethylsuccinate] | 0 DSS | 0 DSS | 0 DSS |
| CC(=O)c1ccc2c(c1)c1cc(C(C)=O)ccc1n2CCNC(C)C [CBL0137 hydrochloride] | 0 DSS | 0.2 DSS | 1.4 DSS |
| OC1(c2ccc(Cl)c(C(F)(F)F)c2)CCN(CCCC(c2ccc(F)cc2)c2ccc(F)cc2)CC1 [Penfluridol] | 1.1 DSS | 0.7 DSS | 1.2 DSS |
| O=C(Nc1cnn2ccc(N3CCC[C@@H]3c3cc(F)ccc3F)nc12)N1CC[C@H](O)C1 [Larotrectinib] | 0 DSS | 0 DSS | 0 DSS |
| COc1ccccc1OCCNCC(O)COc1cccc2[nH]c3ccccc3c12 (centres undefined) [Carvedilol] | 0 DSS | 0 DSS | 0 DSS |
| C[C@@H]1CC[C@]2(NC1)O[C@H]1C[C@H]3[C@@H]4CC=C5C[C@@H](O)CC[C@]5(C)[C@H]4CC[C@]3(C)[C@H]1[C@@H]2C [Solasodine] | 0 DSS | 0 DSS | 0 DSS |
| CC1(C)O[C@@H]2C[C@H]3[C@@H]4CCC5=CC(=O)CC[C@]5(C)[C@@]4(F)[C@@H](O)C[C@]3(C)[C@]2(C(=O)CCl)O1 [Halcinonide] | 0 DSS | 0 DSS | 0 DSS |
| O=C(O)Cc1ccccc1Nc1c(Cl)cccc1Cl [Diclofenac (diethylamine)] | 0 DSS | 0 DSS | 0 DSS |
| COc1cccc2c1C(=O)c1c(O)c3c(c(O)c1C2=O)C[C@@](O)(C(=O)CO)C[C@@H]3O[C@H]1C[C@H](N)[C@H](O)[C@H](C)O1 [Doxorubicin (hydrochloride)] | 0 DSS | 0 DSS | 0 DSS |
| CCCCc1oc2ccccc2c1C(=O)c1cc(I)c(OCCN(CC)CC)c(I)c1 [Amiodarone (hydrochloride)] | 0 DSS | 0 DSS | 0 DSS |
| O=S(=O)(c1cccc2c(O)nccc12)N1CCCNCC1 [Hydroxyfasudil] | 0 DSS | 0 DSS | 0 DSS |
| CCN1CCN(c2ccc(Nc3cc(N(C)C(=O)Nc4c(Cl)c(OC)cc(OC)c4Cl)ncn3)cc2)CC1 [Infigratinib] | 0.7 DSS | 1.5 DSS | 2.3 DSS |
| CC(=O)Nc1nnc(S(N)(=O)=O)s1 [Acetazolamide] | 0 DSS | 0 DSS | 0 DSS |
| COc1ccc2c(c1)c(CC(=O)O)c(C)n2C(=O)c1ccc(Cl)cc1 [Indomethacin (sodium hydrate)] | 0 DSS | 0 DSS | 0 DSS |
| COc1ccc(-c2ccc3cc(C(=O)O)ccc3c2)cc1C12CC3CC(CC(C3)C1)C2 [Adapalene] | 0 DSS | 0 DSS | 0 DSS |
| CCn1c(=O)c(-c2cc(NC(=O)Nc3ccccc3)c(F)cc2Br)cc2cnc(NC)cc21 [Ripretinib] | 0 DSS | 0 DSS | 0 DSS |
| Cc1c(N)nc(C(CC(N)=O)NCC(N)C(N)=O)nc1C(=O)NC(C(=O)NC(C)C(O)C(C)C(=O)NC(C(=O)NCCc1nc(-c2nc(C(=O)NCCC[S+](C)C)cs2)cs1)C(C)O)C(O[C@@H]1O[C@@H](CO)[C@@H](O)[C@H](O)[C@@H]1O[C@H]1O[C@H](CO)[C@@H](O)[C@H](OC(N)=O)[C@@H]1O)c1cnc[nH]1 (some centres undefined) [Bleomycin (sulfate)] | 0 DSS | 0 DSS | 0 DSS |
| COc1c(N2CCNC(C)C2)c(F)cc2c(=O)c(C(=O)O)cn(C3CC3)c12 (centres undefined) [Gatifloxacin (hydrochloride)] | 0 DSS | 0 DSS | 0 DSS |
| Cn1c(=O)c2nc[nH]c2n(C)c1=O [Theophylline] | 0 DSS | 0 DSS | 0.4 DSS |
| CN(C)C(=N)NC(=N)N [Metformin (hydrochloride)] | 0 DSS | 0 DSS | 0 DSS |

Counter-ions that a name gives are not always drawn. Some well-known active drugs show little effect in this data set, so a weak value is uncertain.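 The three lines are all high-grade serous ovarian cancer cells with differing chemosensitivity; OVCAR3 is described as chemosensitive. Toxicity was normalized between DMSO vehicle wells and fully lysed wells, the score comes from a fitted multi-dose response curve, and a score above 5 was counted as drug sensitivity.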
